Reference: PMC10238197, “Deafness‐Associated ADGRV1 Mutation Impairs USH2A Stability through Improper Phosphorylation of WHRN and WDSUB1 Recruitment” (Advanced Science, 2023)
Numbering of substitutions follows the chain as printed. These are yes or no findings as the source states them, for the method shown. In cells and extracts the contact can be indirect. Some binding calls cover weakened binding; strength is not graded here. Sequences can lack the tags named with a protein.

By UniProt entry, the sequences of proteins in these tests, tags left out. Residues count along the entry.
UniProt Q8VHN7, residues 4333-6298: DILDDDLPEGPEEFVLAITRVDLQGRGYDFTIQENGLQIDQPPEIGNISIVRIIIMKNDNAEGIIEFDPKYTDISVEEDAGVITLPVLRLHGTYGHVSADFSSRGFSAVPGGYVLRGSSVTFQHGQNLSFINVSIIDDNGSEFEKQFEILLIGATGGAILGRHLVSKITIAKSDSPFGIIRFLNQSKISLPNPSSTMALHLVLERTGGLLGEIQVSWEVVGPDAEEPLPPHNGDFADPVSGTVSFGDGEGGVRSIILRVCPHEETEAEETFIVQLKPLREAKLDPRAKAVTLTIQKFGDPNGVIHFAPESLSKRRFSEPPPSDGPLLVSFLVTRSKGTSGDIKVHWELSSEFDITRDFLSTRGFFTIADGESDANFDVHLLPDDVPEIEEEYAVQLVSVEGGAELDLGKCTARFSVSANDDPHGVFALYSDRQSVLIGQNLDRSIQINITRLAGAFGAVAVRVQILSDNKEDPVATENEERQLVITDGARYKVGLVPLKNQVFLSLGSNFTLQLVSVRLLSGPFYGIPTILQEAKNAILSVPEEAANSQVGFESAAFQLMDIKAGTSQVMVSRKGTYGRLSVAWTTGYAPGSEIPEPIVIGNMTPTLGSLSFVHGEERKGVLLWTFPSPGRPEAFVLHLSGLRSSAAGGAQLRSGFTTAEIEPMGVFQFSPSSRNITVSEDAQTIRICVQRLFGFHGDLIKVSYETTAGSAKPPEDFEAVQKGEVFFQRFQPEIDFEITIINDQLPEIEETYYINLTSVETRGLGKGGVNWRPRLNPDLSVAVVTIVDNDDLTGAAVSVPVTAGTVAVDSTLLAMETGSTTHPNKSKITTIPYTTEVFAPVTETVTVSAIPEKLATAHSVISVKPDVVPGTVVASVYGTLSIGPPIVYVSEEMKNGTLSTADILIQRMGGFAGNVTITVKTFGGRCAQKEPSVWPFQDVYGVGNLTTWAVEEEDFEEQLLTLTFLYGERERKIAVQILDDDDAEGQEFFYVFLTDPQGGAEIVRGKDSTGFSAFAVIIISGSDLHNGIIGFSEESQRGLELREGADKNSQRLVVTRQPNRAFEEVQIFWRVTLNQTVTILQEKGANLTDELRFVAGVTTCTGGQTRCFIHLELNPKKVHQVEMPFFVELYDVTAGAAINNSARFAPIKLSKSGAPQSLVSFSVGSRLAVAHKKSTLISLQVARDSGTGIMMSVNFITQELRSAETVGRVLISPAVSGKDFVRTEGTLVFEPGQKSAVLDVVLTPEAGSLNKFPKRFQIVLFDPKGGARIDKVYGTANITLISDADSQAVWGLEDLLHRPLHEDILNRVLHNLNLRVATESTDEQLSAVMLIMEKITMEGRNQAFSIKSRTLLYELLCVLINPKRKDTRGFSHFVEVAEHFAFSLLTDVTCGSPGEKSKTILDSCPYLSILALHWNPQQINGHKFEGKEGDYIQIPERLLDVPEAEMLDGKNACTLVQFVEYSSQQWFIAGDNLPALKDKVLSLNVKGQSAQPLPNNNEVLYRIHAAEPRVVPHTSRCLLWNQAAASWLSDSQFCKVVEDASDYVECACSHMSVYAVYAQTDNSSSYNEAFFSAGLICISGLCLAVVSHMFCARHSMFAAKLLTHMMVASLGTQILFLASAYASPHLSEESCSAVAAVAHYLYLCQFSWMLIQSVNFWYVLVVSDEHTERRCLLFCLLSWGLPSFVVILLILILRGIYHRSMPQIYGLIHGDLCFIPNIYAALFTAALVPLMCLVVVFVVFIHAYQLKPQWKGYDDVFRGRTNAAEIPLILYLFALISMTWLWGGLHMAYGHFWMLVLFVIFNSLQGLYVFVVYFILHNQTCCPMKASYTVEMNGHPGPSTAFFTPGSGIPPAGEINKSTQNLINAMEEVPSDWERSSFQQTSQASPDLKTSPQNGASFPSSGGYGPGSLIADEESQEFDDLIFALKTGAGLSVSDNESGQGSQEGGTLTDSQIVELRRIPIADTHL

How the values were obtained:
Experiment in all cases: FRET or BRET; intermolecular FlAsH-BRET saturation in HEK293 cells: fixed amount of WHRN-Nluc, increasing ADGRV1-FlAsH or USH2A-FlAsH; 2.5 µM FlAsH-EDT2, 5 µM coelenterazine-h; net BRET Em530/Em485
[1] = target: T1, WHRN-Nluc (L-Z2) E300A (mouse) (UniProt Q80VW5)
T1 sequence: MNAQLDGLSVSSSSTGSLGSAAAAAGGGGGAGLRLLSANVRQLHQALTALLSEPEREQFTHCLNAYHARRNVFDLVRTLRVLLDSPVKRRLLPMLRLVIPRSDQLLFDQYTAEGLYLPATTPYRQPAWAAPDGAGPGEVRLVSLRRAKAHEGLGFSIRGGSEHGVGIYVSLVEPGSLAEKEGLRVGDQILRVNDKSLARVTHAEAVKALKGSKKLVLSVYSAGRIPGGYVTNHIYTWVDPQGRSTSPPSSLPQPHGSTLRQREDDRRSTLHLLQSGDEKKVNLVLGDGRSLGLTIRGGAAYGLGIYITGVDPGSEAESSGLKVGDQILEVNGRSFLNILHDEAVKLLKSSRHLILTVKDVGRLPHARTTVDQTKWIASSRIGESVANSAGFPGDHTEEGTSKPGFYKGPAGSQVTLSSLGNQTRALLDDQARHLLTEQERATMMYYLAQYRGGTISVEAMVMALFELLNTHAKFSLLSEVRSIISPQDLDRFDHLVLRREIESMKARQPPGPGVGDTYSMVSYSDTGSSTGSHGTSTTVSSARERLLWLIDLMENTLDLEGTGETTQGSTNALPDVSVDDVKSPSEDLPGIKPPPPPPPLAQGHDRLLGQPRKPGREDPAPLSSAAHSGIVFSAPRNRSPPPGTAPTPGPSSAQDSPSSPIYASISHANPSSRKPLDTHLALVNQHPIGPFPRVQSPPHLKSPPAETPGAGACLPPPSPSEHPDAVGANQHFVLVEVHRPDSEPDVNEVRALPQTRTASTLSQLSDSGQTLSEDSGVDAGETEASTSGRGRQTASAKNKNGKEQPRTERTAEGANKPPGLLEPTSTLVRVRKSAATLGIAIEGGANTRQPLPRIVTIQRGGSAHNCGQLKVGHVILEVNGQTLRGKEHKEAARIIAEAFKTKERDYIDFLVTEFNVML

[2] = target: T2, WHRN-Nluc Z2-L (mouse) (UniProt Q80VW5)
T2 sequence: T1 sequence with A300E

[3] = target: T3, WHRN-Nluc L-Z3 (mouse) (UniProt Q80VW5)
T3 sequence: T1 sequence with A300E

Measured: binding

ADGRV1-ICL3-FlAsH (from UniProt Q8VHN7 4333-6298) (receptor)
binds: all assays above
